Paper PMC5549992
Results are given in words; binding and its absence hold for the method and conditions named. Some results given as binding are weak or reduced against the parent protein; the word gives no strength. Sequences can lack the tags named with a protein.

Protein sequences, listed by entry. Tags and fused reporters are not part of them. Residues count along the entry.
UniProt O65934, 201-310: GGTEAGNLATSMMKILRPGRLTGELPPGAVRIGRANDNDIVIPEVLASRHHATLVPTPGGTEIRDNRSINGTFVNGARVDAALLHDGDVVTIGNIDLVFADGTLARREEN

B1: Mycobacterium tuberculosis universal stress protein Rv2623, GAL4 DNA-binding domain fusion (pGBKT7::Rv2623) (protein, UniProt P9WFD7 1-297)
chain: MSSGNSSLGIIVGIDDSPAAQVAVRWAARDAELRKIPLTLVHAVSPEVATWLEVPLPPGVLRWQQDHGRHLIDDALKVVEQASLRAGPPTVHSEIVPAAAVPTLVDMSKDAVLMVVGCLGSGRWPGRLLGSVSSGLLRHAHCPVVIIHDEDSVMPHPQQAPVLVGVDGSSASELATAIAFDEASRRNVDLVALHAWSDVDVSEWPGIDWPATQSMAEQVLAERLAGWQERYPNVAITRVVVRDQPARQLVQRSEEAQLVVVGSRGRGGYAGMLVGSVGETVAQLARTPVIVARESLT

Columns and labels:
[1] = target: T1, Histidine (His6)-tagged Rv2623 expressed in M. smegmatis mc2155 (M. tuberculosis) (UniProt P9WFD7); test: pull-down; both purified
T1 sequence: B1 chain

[2] = target: T2, Mycobacterium tuberculosis universal stress protein Rv2623, GAL4 DNA-binding domain fusion (pGBKT7::Rv2623) (M. tuberculosis) (UniProt P9WFD7); test: two-hybrid
T2 sequence: B1 chain

Molecule	binding [1]	binding [2]
N-terminal FLAG-FHA II fusion (Rv1747 amino acids 201-310), pSD vector-expressed (from UniProt O65934 201-310) (domain or fragment)	no binding	–
B1	–	binds
